Experimental data published in the supplement of paper PMC10849652.
Some of the results follow.

Protein sequences, listed by entry. Tags and fused reporters are not part of them. Lines headed by an entry give the natural chain unless they say otherwise; changes in a name come on top.
UniProt Q14008: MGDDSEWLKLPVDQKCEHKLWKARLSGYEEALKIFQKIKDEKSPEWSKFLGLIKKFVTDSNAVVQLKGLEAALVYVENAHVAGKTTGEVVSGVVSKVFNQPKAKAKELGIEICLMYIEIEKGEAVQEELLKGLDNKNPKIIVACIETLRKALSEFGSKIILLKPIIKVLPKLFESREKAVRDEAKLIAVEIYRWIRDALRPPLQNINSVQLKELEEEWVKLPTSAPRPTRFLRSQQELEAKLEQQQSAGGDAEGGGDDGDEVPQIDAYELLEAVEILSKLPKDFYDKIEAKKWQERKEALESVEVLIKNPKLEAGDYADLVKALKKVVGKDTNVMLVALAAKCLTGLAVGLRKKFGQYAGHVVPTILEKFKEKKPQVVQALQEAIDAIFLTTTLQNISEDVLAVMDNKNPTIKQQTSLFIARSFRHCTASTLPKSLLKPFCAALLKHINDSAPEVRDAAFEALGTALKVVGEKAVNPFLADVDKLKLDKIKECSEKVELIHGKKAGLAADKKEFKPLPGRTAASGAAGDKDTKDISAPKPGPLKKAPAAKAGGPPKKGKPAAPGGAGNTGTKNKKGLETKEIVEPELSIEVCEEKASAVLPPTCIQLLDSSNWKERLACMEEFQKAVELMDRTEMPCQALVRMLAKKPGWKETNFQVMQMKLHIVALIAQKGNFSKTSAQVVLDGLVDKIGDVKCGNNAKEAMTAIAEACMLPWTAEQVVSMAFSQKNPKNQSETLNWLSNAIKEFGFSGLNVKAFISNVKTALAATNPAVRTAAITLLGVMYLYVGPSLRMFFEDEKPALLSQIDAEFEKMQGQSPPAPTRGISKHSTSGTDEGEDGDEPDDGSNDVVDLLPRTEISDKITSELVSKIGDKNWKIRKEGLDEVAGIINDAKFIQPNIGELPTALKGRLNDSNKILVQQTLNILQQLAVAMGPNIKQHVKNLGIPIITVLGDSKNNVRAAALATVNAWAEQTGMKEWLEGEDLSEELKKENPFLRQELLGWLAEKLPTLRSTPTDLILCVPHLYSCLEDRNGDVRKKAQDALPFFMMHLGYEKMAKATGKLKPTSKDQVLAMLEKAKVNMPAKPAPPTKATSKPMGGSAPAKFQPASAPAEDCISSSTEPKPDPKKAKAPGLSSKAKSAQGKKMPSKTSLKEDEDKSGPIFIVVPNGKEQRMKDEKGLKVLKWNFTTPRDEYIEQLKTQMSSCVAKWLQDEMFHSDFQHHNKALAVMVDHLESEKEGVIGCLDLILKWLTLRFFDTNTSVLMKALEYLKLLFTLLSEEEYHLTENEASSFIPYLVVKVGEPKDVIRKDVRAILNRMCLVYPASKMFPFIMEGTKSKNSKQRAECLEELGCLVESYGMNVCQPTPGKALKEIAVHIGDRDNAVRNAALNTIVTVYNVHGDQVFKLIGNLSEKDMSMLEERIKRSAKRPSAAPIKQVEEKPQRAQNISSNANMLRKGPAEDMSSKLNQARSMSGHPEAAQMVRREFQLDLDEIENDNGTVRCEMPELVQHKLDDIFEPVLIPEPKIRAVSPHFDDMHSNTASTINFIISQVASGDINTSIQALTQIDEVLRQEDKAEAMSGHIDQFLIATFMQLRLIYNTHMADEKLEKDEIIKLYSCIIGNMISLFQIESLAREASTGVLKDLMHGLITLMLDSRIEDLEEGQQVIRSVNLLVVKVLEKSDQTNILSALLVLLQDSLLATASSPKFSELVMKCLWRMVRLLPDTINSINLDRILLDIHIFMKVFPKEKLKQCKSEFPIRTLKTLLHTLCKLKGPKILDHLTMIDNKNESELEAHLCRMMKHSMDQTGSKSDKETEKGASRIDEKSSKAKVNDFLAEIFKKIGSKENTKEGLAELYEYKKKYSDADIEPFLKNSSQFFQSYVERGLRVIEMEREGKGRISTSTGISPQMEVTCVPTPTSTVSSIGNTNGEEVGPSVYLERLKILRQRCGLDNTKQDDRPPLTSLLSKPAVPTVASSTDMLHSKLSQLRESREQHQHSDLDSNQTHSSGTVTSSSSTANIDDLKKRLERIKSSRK
UniProt P0CG13, whole entry, looked up: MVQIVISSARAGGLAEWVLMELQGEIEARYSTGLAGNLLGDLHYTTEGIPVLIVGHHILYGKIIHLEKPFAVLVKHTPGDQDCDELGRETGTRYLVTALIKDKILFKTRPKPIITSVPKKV
UniProt O96005: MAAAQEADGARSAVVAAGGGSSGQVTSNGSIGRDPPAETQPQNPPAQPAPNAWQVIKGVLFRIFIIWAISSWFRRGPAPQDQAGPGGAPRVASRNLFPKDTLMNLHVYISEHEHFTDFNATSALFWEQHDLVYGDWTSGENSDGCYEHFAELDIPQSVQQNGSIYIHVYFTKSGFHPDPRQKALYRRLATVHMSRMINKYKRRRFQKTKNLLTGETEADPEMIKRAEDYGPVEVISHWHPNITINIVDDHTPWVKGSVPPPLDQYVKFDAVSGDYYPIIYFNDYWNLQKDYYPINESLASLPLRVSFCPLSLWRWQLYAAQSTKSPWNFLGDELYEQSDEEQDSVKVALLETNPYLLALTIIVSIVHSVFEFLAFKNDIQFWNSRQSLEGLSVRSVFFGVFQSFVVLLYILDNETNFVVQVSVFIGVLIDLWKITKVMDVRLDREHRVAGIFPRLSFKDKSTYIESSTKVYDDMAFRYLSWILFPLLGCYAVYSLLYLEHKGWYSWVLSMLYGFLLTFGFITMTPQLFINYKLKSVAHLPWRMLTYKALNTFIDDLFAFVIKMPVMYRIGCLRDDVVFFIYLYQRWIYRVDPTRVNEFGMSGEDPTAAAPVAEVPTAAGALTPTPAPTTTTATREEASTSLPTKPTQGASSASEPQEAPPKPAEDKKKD
UniProt Q13112, whole entry, looked up: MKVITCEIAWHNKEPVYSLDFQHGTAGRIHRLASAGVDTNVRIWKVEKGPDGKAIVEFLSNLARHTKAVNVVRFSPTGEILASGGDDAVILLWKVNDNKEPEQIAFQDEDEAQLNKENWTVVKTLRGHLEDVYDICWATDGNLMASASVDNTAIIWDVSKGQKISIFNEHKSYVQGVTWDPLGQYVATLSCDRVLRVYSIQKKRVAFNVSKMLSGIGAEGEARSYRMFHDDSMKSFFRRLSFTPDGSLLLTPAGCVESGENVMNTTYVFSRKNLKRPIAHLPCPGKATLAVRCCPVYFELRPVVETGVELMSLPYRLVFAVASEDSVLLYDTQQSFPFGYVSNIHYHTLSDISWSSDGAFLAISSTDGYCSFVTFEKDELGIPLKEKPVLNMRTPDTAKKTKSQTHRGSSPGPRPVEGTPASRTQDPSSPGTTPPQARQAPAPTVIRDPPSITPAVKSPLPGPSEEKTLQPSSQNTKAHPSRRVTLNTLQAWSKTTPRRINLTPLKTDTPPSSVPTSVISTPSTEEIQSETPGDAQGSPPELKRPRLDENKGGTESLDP
UniProt Q99653: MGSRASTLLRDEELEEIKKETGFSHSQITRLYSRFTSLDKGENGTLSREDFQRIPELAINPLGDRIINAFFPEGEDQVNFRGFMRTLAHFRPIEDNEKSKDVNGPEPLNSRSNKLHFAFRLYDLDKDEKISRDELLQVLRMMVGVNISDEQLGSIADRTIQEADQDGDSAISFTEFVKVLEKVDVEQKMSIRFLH
UniProt Q8IYA6: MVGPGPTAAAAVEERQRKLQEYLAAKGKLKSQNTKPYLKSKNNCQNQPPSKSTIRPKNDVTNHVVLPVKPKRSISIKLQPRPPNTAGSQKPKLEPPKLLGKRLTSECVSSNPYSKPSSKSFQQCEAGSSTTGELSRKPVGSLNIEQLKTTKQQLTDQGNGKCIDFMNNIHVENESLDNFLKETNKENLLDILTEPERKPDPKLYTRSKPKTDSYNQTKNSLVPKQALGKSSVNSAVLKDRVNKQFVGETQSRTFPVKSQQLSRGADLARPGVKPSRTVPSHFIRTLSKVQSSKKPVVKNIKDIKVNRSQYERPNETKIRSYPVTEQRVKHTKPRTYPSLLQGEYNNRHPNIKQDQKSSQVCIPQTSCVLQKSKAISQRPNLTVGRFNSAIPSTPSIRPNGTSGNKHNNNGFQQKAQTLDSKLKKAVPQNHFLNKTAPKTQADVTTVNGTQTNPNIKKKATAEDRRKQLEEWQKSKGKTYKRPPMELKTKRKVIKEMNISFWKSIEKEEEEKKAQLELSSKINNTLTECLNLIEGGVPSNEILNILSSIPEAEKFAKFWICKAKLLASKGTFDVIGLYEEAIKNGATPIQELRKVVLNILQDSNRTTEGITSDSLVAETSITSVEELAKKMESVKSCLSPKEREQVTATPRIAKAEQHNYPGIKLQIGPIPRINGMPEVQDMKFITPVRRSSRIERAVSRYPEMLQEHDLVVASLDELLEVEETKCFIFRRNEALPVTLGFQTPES
UniProt Q96EP1: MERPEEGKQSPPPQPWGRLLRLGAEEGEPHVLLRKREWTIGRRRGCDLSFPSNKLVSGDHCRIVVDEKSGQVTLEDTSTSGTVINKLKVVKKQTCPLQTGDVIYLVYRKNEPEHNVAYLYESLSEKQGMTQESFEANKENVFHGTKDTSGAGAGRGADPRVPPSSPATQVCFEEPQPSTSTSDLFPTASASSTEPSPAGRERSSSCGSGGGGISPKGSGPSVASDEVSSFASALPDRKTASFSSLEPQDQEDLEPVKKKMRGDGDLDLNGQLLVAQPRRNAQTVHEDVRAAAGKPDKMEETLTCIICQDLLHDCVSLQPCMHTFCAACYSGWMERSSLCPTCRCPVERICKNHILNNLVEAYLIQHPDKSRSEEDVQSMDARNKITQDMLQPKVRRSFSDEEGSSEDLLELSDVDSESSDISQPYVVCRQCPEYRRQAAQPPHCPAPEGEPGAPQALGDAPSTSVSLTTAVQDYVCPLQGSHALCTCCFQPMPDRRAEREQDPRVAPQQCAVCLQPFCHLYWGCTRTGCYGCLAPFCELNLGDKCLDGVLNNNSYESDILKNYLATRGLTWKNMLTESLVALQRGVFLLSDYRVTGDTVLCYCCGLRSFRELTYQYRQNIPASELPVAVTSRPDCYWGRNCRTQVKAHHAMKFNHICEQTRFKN
UniProt Q9UBY8, whole entry, looked up: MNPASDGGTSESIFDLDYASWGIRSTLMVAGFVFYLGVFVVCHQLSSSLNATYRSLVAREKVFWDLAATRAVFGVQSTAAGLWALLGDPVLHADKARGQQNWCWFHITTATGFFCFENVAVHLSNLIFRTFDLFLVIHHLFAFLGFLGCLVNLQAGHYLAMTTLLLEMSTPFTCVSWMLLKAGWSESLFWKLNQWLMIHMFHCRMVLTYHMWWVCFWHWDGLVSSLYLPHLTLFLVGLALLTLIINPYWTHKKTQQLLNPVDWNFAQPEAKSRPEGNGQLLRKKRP
UniProt O94985: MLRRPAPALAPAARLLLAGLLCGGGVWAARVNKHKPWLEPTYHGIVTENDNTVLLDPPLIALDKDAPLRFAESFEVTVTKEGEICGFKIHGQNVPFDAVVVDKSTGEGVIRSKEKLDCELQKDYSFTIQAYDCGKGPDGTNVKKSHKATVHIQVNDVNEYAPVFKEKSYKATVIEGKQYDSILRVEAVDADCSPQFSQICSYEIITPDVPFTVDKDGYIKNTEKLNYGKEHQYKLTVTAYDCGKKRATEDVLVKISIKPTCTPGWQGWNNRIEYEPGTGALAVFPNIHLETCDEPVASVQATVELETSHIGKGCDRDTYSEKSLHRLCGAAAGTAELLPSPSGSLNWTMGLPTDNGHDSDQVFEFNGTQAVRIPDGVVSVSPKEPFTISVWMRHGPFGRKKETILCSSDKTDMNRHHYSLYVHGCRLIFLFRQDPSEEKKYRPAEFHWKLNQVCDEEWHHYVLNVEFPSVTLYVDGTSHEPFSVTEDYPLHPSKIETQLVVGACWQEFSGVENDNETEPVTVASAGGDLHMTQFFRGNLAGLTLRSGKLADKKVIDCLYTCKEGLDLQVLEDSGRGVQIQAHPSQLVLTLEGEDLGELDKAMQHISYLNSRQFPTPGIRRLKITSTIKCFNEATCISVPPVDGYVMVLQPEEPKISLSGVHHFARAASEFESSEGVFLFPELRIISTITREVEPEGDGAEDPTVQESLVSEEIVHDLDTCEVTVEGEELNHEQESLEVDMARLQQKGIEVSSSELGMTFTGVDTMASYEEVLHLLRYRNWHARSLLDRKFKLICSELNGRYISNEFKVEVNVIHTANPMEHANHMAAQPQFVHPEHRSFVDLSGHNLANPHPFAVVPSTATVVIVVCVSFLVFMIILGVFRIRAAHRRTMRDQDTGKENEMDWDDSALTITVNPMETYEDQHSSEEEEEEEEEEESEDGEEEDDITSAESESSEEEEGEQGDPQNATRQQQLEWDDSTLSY
UniProt Q9Y696: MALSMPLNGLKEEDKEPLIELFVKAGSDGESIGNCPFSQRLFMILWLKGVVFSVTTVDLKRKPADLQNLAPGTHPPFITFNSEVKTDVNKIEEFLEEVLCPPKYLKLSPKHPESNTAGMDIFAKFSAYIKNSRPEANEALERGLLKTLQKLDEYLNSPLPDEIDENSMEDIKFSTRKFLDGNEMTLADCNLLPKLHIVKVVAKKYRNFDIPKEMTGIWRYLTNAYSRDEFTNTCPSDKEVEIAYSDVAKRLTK

Assays:
Assay in all cases: log2 fold change, soluble protein after heating vs DMSO (PISA); higher = thermal stabilisation; K562 lysate, 10 uM; active = over 0.2 and 3.5 SD of the protein, either way, in both replicates (recomputed)
nilotinib = compound: Cc1cn(-c2cc(NC(=O)c3ccc(C)c(Nc4nccc(-c5cccnc5)n4)c3)cc(C(F)(F)F)c2)cn1 [nilotinib]
Summary of the method: (§1)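 The values are log-two fold changes in thermal stability compared with solvent controls and come from duplicates. They were obtained by TMTpro 16plex LC-MS/MS, with channel sums equalised, on the supernatant after 21,000xg for 90 min. That supernatant came from crude K562 extract at 1 mg/mL protein treated with 10 μM compound for 30 min, heated for 3 min across 48°C-58°C, pooled and brought to 0.5% NP-40 at 4°C.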

[1] = compound: Cc1nc(Nc2n[nH]c3c2CN(C(=O)N[C@H](CN(C)C)c2ccccc2)C3(C)C)c2sccc2n1
Summary of the method: as §1

dasatinib = compound: Cc1nc(Nc2ncc(C(=O)Nc3c(C)cccc3Cl)s2)cc(N2CCN(CCO)CC2)n1 [dasatinib]
Summary of the method: as §1

[2] = compound: Cc1ncc(-c2ccnc(Nc3ccc(S(C)(=O)=O)cc3)n2)n1C(C)C
Summary of the method: as §1

[3] = compound: Cn1cc(-c2ccc3c(c2)CCN3C(=O)Cc2cccc(C(F)(F)F)c2)c2c(N)ncnc21
Summary of the method: as §1

quisinostat = compound: Cn1cc(CNCC2CCN(c3ncc(C(=O)NO)cn3)CC2)c2ccccc21 [quisinostat]
Summary of the method: as §1

tipifarnib = compound: Cn1cncc1[C@@](N)(c1ccc(Cl)cc1)c1ccc2c(c1)c(-c1cccc(Cl)c1)cc(=O)n2C [tipifarnib]
Summary of the method: as §1

[4] = compound: NC(=O)Nc1cc(-c2cccc(F)c2)sc1C(=O)N[C@H]1CCCNC1
Summary of the method: as §1

[5] = compound: NC(=O)c1cnc(N[C@@H]2CCCC[C@@H]2N)nc1Nc1cccc(-n2nccn2)c1
Summary of the method: as §1

[6] = compound: NC1(c2ccc(-c3nc4ccn5c(=O)[nH]nc5c4cc3-c3ccccc3)cc2)CCC1
Summary of the method: as §1

Measured: log2 fold change

CKAP5 (UniProt Q14008)
inactive: nilotinib 0 | [1] 0.002 | dasatinib -0.024 | [2] -0.005 | [3] 0.026 | quisinostat -0.03 | tipifarnib -0.028 | [4] 0.021 | [5] 0.01 | [6] 0.006

CHD8 (UniProt Q9HCK8)
inactive: nilotinib -0.005 | [1] -0.031 | dasatinib -0.006 | [2] -0.034 | [3] 0.022 | quisinostat -0.015 | tipifarnib 0.02 | [4] 0.059 | [5] 0.041 | [6] -0.022

CHTF8 (UniProt P0CG13)
inactive: nilotinib 0.021 | [1] 0.062 | dasatinib 0.049 | [2] -0.068 | [3] -0.024 | quisinostat 0.031 | tipifarnib 0.049 | [4] 0.052 | [5] -0.026 | [6] 0.122

CKAP2 (UniProt Q8WWK9)
inactive: nilotinib 0.075 | [1] 0.07 | dasatinib 0.004 | [2] 0.036 | [3] -0.014 | quisinostat -0.098 | tipifarnib -0.053 | [4] -0.015 | [5] -0.049 | [6] -0.023

CLPTM1 (UniProt O96005)
inactive: nilotinib -0.016 | [1] -0.008 | dasatinib 0.042 | [2] -0.035 | [3] 0 | quisinostat -0.06 | tipifarnib -0.088 | [4] 0.004 | [5] -0.034 | [6] -0.009

CHAF1B (UniProt Q13112)
inactive: nilotinib -0.034 | [1] 0.004 | dasatinib -0.001 | [2] -0.028 | [3] -0.008 | quisinostat -0.077 | tipifarnib -0.04 | [4] 0.012 | [5] -0.012 | [6] 0.014

CHAF1A (UniProt Q13111)
inactive: nilotinib -0.027 | [1] 0.032 | dasatinib -0.068 | [2] 0.008 | [3] -0.032 | quisinostat -0.053 | tipifarnib 0.019 | [4] -0.001 | [5] -0.031 | [6] 0.036

CLPTM1L (UniProt Q96KA5)
inactive: nilotinib 0.037 | [1] -0.005 | dasatinib 0.006 | [2] 0 | [3] -0.016 | quisinostat 0.011 | tipifarnib -0.026 | [4] 0.046 | [5] 0.016 | [6] -0.069

CMSS1 (UniProt Q9BQ75)
inactive: nilotinib -0.025 | [1] 0.014 | dasatinib -0.019 | [2] 0 | [3] 0.014 | quisinostat 0.023 | tipifarnib 0.06 | [4] 0.013 | [5] 0.004 | [6] 0.031

CHMP4B (UniProt Q9H444)
inactive: nilotinib -0.078 | [1] 0.024 | dasatinib 0.031 | [2] -0.01 | [3] 0.005 | quisinostat 0.124 | tipifarnib 0.043 | [4] -0.055 | [5] 0.001 | [6] 0.014

CHP1 (UniProt Q99653)
inactive: nilotinib 0.016 | [1] -0.041 | dasatinib 0.04 | [2] -0.023 | [3] 0.015 | quisinostat -0.031 | tipifarnib -0.021 | [4] 0 | [5] -0.022 | [6] -0.037

CKAP2L (UniProt Q8IYA6)
inactive: nilotinib 0.028 | [1] 0.011 | dasatinib -0.079 | [2] 0.165 | [3] -0.065 | quisinostat -0.083 | tipifarnib -0.005 | [4] -0.018 | [6] -0.265

CLIP1 isoform 1 (UniProt P30622)
inactive: nilotinib -0.01 | [1] 0.01 | dasatinib 0.022 | [2] 0.013 | [3] 0.001 | quisinostat 0.008 | tipifarnib 0.002 | [4] -0.004 | [5] -0.002 | [6] -0.002

CMPK1 (UniProt P30085)
inactive: nilotinib -0.012 | [1] 0.012 | dasatinib 0.001 | [2] -0.038 | [3] 0.014 | quisinostat -0.034 | tipifarnib 0.017 | [4] 0 | [5] -0.02 | [6] 0.012

CHCHD10 (UniProt Q8WYQ3)
inactive: nilotinib -0.041 | [1] 0.049 | dasatinib 0.016 | [2] -0.028 | [3] -0.03 | tipifarnib -0.088 | [5] -0.037 | [6] -0.019

CMTM6 (UniProt Q9NX76)
inactive: nilotinib 0.111 | [1] -0.043 | dasatinib -0.004 | [2] 0.063 | [3] 0.057 | quisinostat 0.026 | tipifarnib -0.008 | [4] -0.008 | [5] -0.08 | [6] 0.041

CLASP2 (UniProt O75122)
inactive: nilotinib 0.013 | [1] -0.14 | [2] -0.061 | quisinostat -0.135 | tipifarnib -0.242 | [4] -0.058 | [5] 0.205

CHSY1 (UniProt Q86X52)
inactive: nilotinib -0.228 | [1] 0.082 | dasatinib -0.092 | [2] -0.326 | [3] -0.024 | tipifarnib 0.061 | [5] -0.141 | [6] 0.043

CLIP4 (UniProt Q8N3C7)
inactive: nilotinib 0.049 | [1] 0.087 | [2] -0.086 | quisinostat -0.017 | tipifarnib -0.053 | [4] -0.001 | [5] 0.005 | [6] 0.01

CHFR (UniProt Q96EP1)
inactive: nilotinib 0.035 | [1] 0.082 | dasatinib 0.017 | [2] 0.019 | [3] 0.049 | quisinostat 0.02 | tipifarnib 0.013 | [4] 0.036 | [5] 0.246 | [6] 0.005

CMTM3 (UniProt Q96MX0)
inactive: nilotinib 0.07 | [1] 0.048 | dasatinib 0.05 | [2] 0.144 | [3] 0.015 | quisinostat 0.023 | tipifarnib -0.111 | [4] -0.115 | [5] -0.055 | [6] -0.026

CHD9 (UniProt Q3L8U1)
inactive: nilotinib 0.209 | [1] 0.125 | dasatinib -0.124 | [2] -0.279 | [3] -0.109 | quisinostat -0.029 | tipifarnib -0.017 | [4] 0 | [6] 0.032

CLUH (UniProt O75153)
inactive: nilotinib 0.009 | [1] 0.075 | dasatinib -0.025 | [2] -0.007 | [3] 0.002 | quisinostat -0.043 | tipifarnib 0.007 | [4] 0.039 | [5] -0.006 | [6] 0.004

CLN8 (UniProt Q9UBY8)
inactive: nilotinib -0.106 | [1] 0.127 | dasatinib -0.015 | [2] 0.079 | [3] -0.002 | quisinostat 0.043 | tipifarnib -0.066 | [4] 0.035 | [5] -0.053 | [6] -0.094

CLUAP1 (UniProt I3L2E1)
inactive: nilotinib 0.105 | [1] -0.238 | [2] 0.26 | quisinostat -0.656 | tipifarnib -0.18 | [4] -0.023 | [5] 0 | [6] -0.049

CLSTN1 (UniProt O94985)
inactive: nilotinib -0.156 | [1] -0.044 | [2] 0.211 | quisinostat 0.094 | tipifarnib -0.018 | [4] -0.075 | [5] -0.102

CLN3 (UniProt Q13286)
inactive: nilotinib -0.1 | [1] -0.074 | dasatinib -0.043 | [2] -0.028 | [3] 0.041 | tipifarnib -0.056 | [5] 0.037 | [6] 0.001

Two successive entries from above, for reference:
CLSTN1 (UniProt O94985)
inactive: nilotinib -0.156 | [1] -0.044 | [2] 0.211 | quisinostat 0.094 | tipifarnib -0.018 | [4] -0.075 | [5] -0.102

CLN3 (UniProt Q13286)
inactive: nilotinib -0.1 | [1] -0.074 | dasatinib -0.043 | [2] -0.028 | [3] 0.041 | tipifarnib -0.056 | [5] 0.037 | [6] 0.001

More records follow.

CLP1 (UniProt Q92989)
inactive: nilotinib -0.029 | [1] 0.039 | dasatinib -0.037 | [2] -0.039 | [3] 0.119 | quisinostat -0.065 | tipifarnib -0.011 | [4] 0.029 | [5] -0.027 | [6] 0.026

CHORDC1 (UniProt Q9UHD1)
inactive: nilotinib 0.024 | [1] -0.003 | dasatinib 0.016 | [2] 0.034 | [3] 0.008 | quisinostat 0.018 | tipifarnib 0.021 | [4] -0.015 | [5] 0 | [6] -0.005

CHST11 (UniProt Q9NPF2)
inactive: nilotinib 0.036 | [1] -0.091 | dasatinib -0.025 | [2] 0.022 | [3] -0.082 | quisinostat -0.059 | tipifarnib 0.018 | [4] 0.032 | [6] 0.03

CLIC4 (UniProt Q9Y696)
inactive: nilotinib -0.004 | [1] 0.014 | dasatinib 0.02 | [2] 0.01 | [3] -0.031 | quisinostat -0.032 | tipifarnib -0.01 | [4] 0.021 | [5] -0.008 | [6] 0.007
